This is an account of results in article PMC7862700.

The list shows a part of the results, in another mix than the full data. At the low end of the ranking the order means little.

What all share (assay): DAPPL (digital affinity profiling via proximity ligation, sequencing)
Common to all, as to conditions: 10 mM Tris-HCl pH 7.5, 50 mM NaCl, 1 mM DTT, 4% glycerol, room temperature, 30 min; GST-TFs on glutathione beads, 16-mer random dsDNA library, 0.1% …; high values mean tight binding; double strand, one strand shown; scale: fold enrichment (6-mer frequency, TF over GST control)

One experiment addresses T1, ELK1 (UniProt P19419).
T1 sequence: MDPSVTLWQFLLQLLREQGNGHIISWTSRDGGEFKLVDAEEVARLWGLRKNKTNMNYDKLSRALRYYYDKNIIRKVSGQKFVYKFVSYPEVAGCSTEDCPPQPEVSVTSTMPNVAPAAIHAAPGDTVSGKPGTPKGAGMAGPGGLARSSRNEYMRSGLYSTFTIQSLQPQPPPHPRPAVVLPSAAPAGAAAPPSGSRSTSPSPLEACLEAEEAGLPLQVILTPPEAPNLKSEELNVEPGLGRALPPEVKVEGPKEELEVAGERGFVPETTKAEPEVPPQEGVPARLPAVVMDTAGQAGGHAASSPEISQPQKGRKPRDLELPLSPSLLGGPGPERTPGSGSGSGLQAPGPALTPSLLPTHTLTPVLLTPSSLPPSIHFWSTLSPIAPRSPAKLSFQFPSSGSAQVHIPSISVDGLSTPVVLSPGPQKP

In a further experiment the target is T2, ELK3 (UniProt P41970).
T2 sequence: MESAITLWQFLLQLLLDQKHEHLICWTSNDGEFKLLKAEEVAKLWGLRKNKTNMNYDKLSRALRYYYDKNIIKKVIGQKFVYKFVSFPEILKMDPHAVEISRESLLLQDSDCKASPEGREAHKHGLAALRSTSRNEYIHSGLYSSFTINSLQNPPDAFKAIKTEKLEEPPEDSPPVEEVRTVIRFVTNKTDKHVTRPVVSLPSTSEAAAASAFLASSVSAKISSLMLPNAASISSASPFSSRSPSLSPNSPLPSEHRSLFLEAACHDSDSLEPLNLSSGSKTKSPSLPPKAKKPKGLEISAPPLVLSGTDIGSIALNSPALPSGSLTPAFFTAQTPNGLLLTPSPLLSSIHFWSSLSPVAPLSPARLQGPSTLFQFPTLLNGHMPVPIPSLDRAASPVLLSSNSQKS

Another experiment deals with T3, ETV3 (UniProt P41162-2).
T3 sequence: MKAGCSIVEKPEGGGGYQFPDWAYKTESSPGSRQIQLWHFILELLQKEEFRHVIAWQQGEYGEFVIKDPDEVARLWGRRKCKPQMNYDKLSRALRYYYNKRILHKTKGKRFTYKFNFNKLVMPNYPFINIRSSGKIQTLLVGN

A further experiment concerns the target T4, ETS2 (UniProt P15036).
T4 sequence: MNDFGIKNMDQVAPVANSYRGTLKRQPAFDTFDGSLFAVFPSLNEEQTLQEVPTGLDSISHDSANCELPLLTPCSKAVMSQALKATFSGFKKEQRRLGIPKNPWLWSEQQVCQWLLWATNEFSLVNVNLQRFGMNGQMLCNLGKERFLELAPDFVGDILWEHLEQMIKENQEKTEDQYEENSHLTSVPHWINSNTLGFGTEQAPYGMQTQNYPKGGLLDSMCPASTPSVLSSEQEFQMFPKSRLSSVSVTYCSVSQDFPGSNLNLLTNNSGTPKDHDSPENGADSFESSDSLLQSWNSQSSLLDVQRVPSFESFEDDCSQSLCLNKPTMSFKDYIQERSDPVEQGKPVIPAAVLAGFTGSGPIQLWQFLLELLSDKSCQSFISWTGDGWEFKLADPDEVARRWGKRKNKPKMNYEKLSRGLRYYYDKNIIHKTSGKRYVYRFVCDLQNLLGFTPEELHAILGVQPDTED

On to TGGCGA, for which the figures for the binding signal with ELK1, with ELK3 and with ETV3 were 1.02, 0.929 and 0.98, respectively.
As to TAGACT, the binding signal with ELK1 was found to be 0.973; in the experiment with ELK3 it was 0.895; in the experiment with ETV3, 0.981.
For the sequence CAATCT, the results for the binding signal with ELK1 and with ETV3 were 1.18 and 1.19, respectively.
As for CAGCAC, the binding signal with ELK1 came to 0.964; with ELK3, 0.92; with ETV3, 0.932.
For TCGTCT, the results for the binding signal in the experiment with ELK1 and with ETV3 were 1.34 and 1.23, respectively.
For the sequence GTGTCT, the binding signal with ELK1 was 0.994; with ELK3, 0.908; with ETV3, 1.02.
For the sequence GCATTT, the binding signal turned out to be 1.38 in the experiment with ELK1 and 1.36 in the experiment with ETV3.
In the case of ATCCCA, the figures for the binding signal with ELK1 and with ETV3 were 1.14 and 0.995, respectively.
Turning to TCCATG, the binding signal in the experiment with ELK1 is 1.18; in the experiment with ELK3 it was 1.24; with ETV3, 1.19.
GCTGCA: the binding signal in the experiment with ELK1 turned out to be 1.07; with ELK3 it was 0.886; with ETV3, 0.972.
With AACGGC, the binding signal turned out to be 1.13 with ELK1 and 1.29 with ETV3.
As to TCTCTT, the binding signal is 1.34 with ELK1 and 1.44 with ETV3.
On the same counts, the results for ACCTAT are 1.26 and 1.17.
On to GTACAA, for which the binding signal is 1.08 with ELK1 and 1.11 with ETV3.
For TGACTG, the binding signal was determined as 1.09 with ELK1, 0.905 with ELK3 and 0.957 with ETV3.
As to CGTTCC, the binding signal with ELK1 was 1.35; in the experiment with ELK3, 1.46; with ETV3, 1.41.
Consider TCGATA, for which the binding signal was 1.03 with ELK1 and 1.11 in the experiment with ETV3.
Take TCATAA: the binding signal in the experiment with ELK1 is 1.05; in the experiment with ELK3, 0.986; with ETV3, 0.986.
Turning to TCACAA, the binding signal came out at 1.14 with ELK1 and 1.08 with ETV3.
For GTTTCA, the binding signal with ELK1 amounted to 1.27; in the experiment with ETV3, 1.3.
For GAACTG, the binding signal with ELK1 was 0.993; with ELK3 it was 0.87; with ETV3, 1.09.
On to TTTGTG, for which the binding signal in the experiment with ELK1 turned out to be 1.2; with ELK3, 1.17; with ETV3, 1.13.
Take TCTATA: the binding signal with ELK1 was determined as 1.13; with ETV3 it was 1.06.
For the sequence TGTGGT, the binding signal in the experiment with ELK1 was 0.966; with ELK3, 0.992; in the experiment with ETV3 it was 0.995.
In the case of TAGGGC, the binding signal came out at 1.07 with ELK1, 0.925 with ELK3 and 1.03 with ETV3.
As for ATTACA, the binding signal came to 1.13 with ELK1 and 1.04 with ETV3.
For GCTAGT, the binding signal amounted to 0.999 with ELK1, 1.11 in the experiment with ELK3 and 0.981 with ETV3.
Regarding TCTATG, the binding signal amounted to 1.2 with ELK1 and 0.896 with ELK3.
As for TCCTGT, the binding signal with ELK1 was determined as 1.72; in the experiment with ELK3, 1.88.
In the case of GCAACC, the binding signal in the experiment with ELK1 worked out at 1.07; in the experiment with ELK3, 1.09.
On to ATTTGC, for which the binding signal stood at 1.36 with ELK1 and 1.2 in the experiment with ELK3.
For CCCGGT, the binding signal with ELK1 was determined as 0.994; in the experiment with ELK3, 0.921.
On the same counts, the results for TTTAAG are 1.33 and 1.46.
Turning to TCAATC, the values for the binding signal with ELK1 and in the experiment with ELK3 were 1.08 and 0.977, respectively.
Consider TAAGCG, for which the binding signal with ELK1 worked out at 0.987; with ELK3, 1.01.
CGGAAC: the binding signal in the experiment with ELK1 stood at 1.18; with ELK3 it was 1.21.
Consider CGCTGG, for which the results for the binding signal with ELK1, in the experiment with ELK3 and with ETV3 were 0.987, 0.938 and 1.12, respectively.
As to TTTTGG, the binding signal with ELK1 was 1.42; with ELK3, 1.31.
For TGGATA the same measures were 1.05 and 0.961.
ACTAGG: the values for the binding signal in the experiment with ELK1 and with ELK3 were 1.1 and 0.994, respectively.
For CGGCTG the same measures were 0.947 and 0.73.
Consider TCACTA, for which the binding signal with ELK1 was found to be 1.22; in the experiment with ELK3, 0.999.
Take TGTCAT: the figures for the binding signal in the experiment with ELK1 and with ELK3 were 1.08 and 1.04, respectively.
As for GTATGA, the values for the binding signal with ELK1 and with ELK3 were 0.974 and 0.966, respectively.
With GCTGTT, the binding signal with ELK1 came out at 1.07; with ELK3, 1.04.
Regarding CTTGCG, the binding signal with ELK1 worked out at 1.42; with ELK3, 1.44.
For TGCGCA the same measures were 1.07 and 0.967.
Consider TTCAGG, for which the binding signal with ELK1 was determined as 1.14; in the experiment with ELK3 it was 1.09.
Regarding CGGATG, the binding signal came to 1.66 in the experiment with ELK1 and 1.6 in the experiment with ELK3.
On the same counts, the results for TCCACT are 1.52 and 1.49.
In the case of GTCCTG, the binding signal with ELK1 was 0.96; with ELK3, 1.05; in the experiment with ETV3 it was 1.2.
On to CTTCCG, for which the binding signal with ELK1 is 8.14; with ELK3, 9.13.
As to TTGGGG, the binding signal with ELK1 amounted to 1.24; with ELK3, 1.31; with ETV3 it was 1.13.
With CTATGT, the values for the binding signal in the experiment with ELK1 and in the experiment with ELK3 were 1.11 and 0.958, respectively.
GTGCTA: the binding signal came out at 1.09 with ELK1 and 1.14 with ELK3.
Consider TCATTA, for which the binding signal in the experiment with ELK1 was determined as 0.975; with ELK3 it was 0.924.
As to TTGTAA, the binding signal was found to be 1.3 with ELK1 and 1.08 in the experiment with ELK3.
In the case of ATCGTT, the results for the binding signal in the experiment with ELK1 and with ELK3 were 0.868 and 0.919, respectively.
Turning to AGACTT, the results for the binding signal in the experiment with ELK1 and with ELK3 were 1.04 and 0.99, respectively.
With CTGTCT, the binding signal is 1.3 with ELK1 and 1.62 with ELK3.
On to TGAATA, for which the binding signal turned out to be 1.11 with ELK1 and 1.06 with ELK3.
For CAATTC the same measures were 1.27 and 1.2.
For the sequence CATATG, the binding signal in the experiment with ELK1 turned out to be 0.987; in the experiment with ELK3, 1.04.
Regarding TGTGCC, the binding signal with ELK1 is 1.2; with ELK3 it was 1.3.
With GTAGAT, the binding signal with ELK1 is 0.975; in the experiment with ELK3, 0.912; with ETV3, 0.922.
In the case of ATGCCG, the binding signal in the experiment with ELK1 stood at 1.13; with ELK3, 1.07.
For TTGCTG, the binding signal with ELK1 worked out at 1.13; with ELK3 it was 1.33.
Take ACAGCC: the binding signal with ELK3 amounted to 0.976; with ETS2, 1.03; with ETV3 it was 1.04.
With CACCTC, the binding signal with ETS2 stood at 1.06; with ETV3, 1.15.
For GGCACT the same measures were 1.24 and 1.29.
As to ATAAGT, the values for the binding signal with ETS2 and with ETV3 were 1.06 and 1.03, respectively.
For the sequence CGCAAC, the figures for the binding signal in the experiment with ELK3, with ETS2 and with ETV3 were 0.985, 0.938 and 0.981, respectively.
Consider ACTAGA, for which the binding signal with ELK3 stood at 0.951; with ETS2, 0.921; with ETV3, 0.96.
Turning to CGGTTT, the binding signal was 1.25 with ELK3, 1.2 in the experiment with ETS2 and 1.22 with ETV3.
As to AGTATG, the binding signal with ELK3 came out at 0.97; with ETS2, 1.09; with ETV3, 0.964.
Take CTAGGC: the figures for the binding signal in the experiment with ETS2 and in the experiment with ETV3 were 1.01 and 1.09, respectively.
On to TAGCGA, for which the binding signal with ETS2 was 1.01; in the experiment with ETV3, 0.987.
Regarding TGGCCC, the binding signal with ETS2 is 1.12; with ETV3 it was 1.03.
In the case of TGGTGG, the binding signal worked out at 1.22 in the experiment with ELK3, 1.08 with ETS2 and 0.983 with ETV3.
TTGCTC: the results for the binding signal with ETS2 and with ETV3 were 1.33 and 1.2, respectively.
On to CTCACC, for which the binding signal was 1.11 in the experiment with ETS2 and 1.14 with ETV3.
Regarding TTCGCC, the figures for the binding signal in the experiment with ETS2 and with ETV3 were 1.12 and 1.08, respectively.
On to CGCGAA, for which the values for the binding signal with ETS2 and in the experiment with ETV3 were 0.842 and 1.01, respectively.
On the same counts, the results for AAGCGG are 1.13 and 1.15.
TGGATC: the binding signal with ETS2 came out at 0.957; in the experiment with ETV3 it was 0.888.
With ACTGAC, the binding signal in the experiment with ETS2 is 1.32; in the experiment with ETV3, 1.21.
